No constants are given. Whether binding was seen depends on the method and setting. Binding seen in cells or lysates may run through a third protein. Some entries that bind do so weakly or less than the wild type.
Target: GST-WASP-GBD (228-298aa) (UniProt P42768)
Experiment: pull-down; CD18/HPAF cell lysates (1% Triton X-100, 10 mM MgCl2, 4°C) incubated 1 h with agarose beads coated with GST-PAK1, GST-WASP or GST-Rhotekin; immunoblot for Rac1, Cdc42 or RhoA; cells treated with vehicle, compounds #1-#10, NSC23766 or EGF, or lysate with 1 mM GDP; only the target purified

The chains behind the UniProt entries cited, without tags or fusion partners. Residues count along the entry.
UniProt P42768, residues 228-298: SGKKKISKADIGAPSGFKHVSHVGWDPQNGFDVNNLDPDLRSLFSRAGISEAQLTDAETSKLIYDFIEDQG
UniProt P60953: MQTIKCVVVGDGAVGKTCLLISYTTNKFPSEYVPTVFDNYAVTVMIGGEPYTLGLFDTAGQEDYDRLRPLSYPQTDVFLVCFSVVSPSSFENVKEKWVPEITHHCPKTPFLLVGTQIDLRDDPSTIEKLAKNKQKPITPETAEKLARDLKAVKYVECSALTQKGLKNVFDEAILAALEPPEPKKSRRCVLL

## Cdc42 (endogenous, CD18/HPAF cells), GTP-bound (from UniProt P60953 1-191)
  binding: binds

Reference: PMC5470993, “Discovery and characterization of small molecule Rac1 inhibitors” (Oncotarget, 2017)
